PubChem BioAssay AID504804 – Drosophila RNAi Screening Center – 2011
In all, the deposit lists about 19,000 reagents; below is a random part of those that have a named target and a result. Of all reagents, 47 (0.25%) got an active call. 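Signals are raw, not normalised; exact z-scores behind calls not deposited; actives needed confirmation, so some wells reaching 2 SD are inactive.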 Names joined by + are all predicted targets of the reagent. No sequences are given here.

Purpose: 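Knock-downs shielding fly cells from apoptosis caused by DNA damage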 (primary screen)
Cells: Drosophila Kc cells
Knock-down reagent: long dsRNA against Drosophila genes, 0.5 µg dsRNA per well
Timing: 96 h (48 h knock-down, then 48 h drug)
Challenge: doxorubicin 5 µg/ml for 48 h, added 48 h after dsRNA
Read-out: 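Luminescent ATP counts per replicate, not normalised, reflecting viable cells after 48 h dsRNA knock-down followed by 48 h of 5 µg/ml doxorubicin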
Scale: raw ATP luminescence: higher = more viable cells, protection from doxorubicin
Active means: 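z-score of 2 or more over plate mean in both duplicates, retained only when retests and separate dsRNAs confirm the protection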

gene | dsRNA | raw ATP luminescence, replicate 1 | raw ATP luminescence, replicate 2 | Outcome
CG6607 | DRSC16073 | 65910 | 68520 | inactive
CG14418 | DRSC18637 | 36510 | 25470 | inactive
Jon66Ci | DRSC10772 | 81500 | 95607 | inactive
hpRNA:CR18854 | DRSC02702 | 35480 | 60097 | inactive
Tsp66A + CG42661 + CG42660 | DRSC10233 | 74950 | 82910 | inactive
Krn | DRSC11202 | 89900 | 72913 | inactive
CG14762 | DRSC05073 | 92643 | 76237 | inactive
CG14762 | DRSC06496 | 40440 | 61067 | inactive
a | DRSC04667 | 24213 | 27430 | inactive
a | DRSC04668 | 49377 | 54953 | inactive
aay | DRSC11320 | 38630 | 35820 | inactive
CG42673 | DRSC08989 | 1.75e5 | 1.71e5 | inactive
CG42673 | DRSC08991 | 19457 | 19813 | inactive
CG42673 | DRSC10177 | 76353 | 61880 | inactive
CG42673 | DRSC10264 | 72620 | 63917 | inactive
CG42673 | DRSC10353 | 74860 | 71453 | inactive
CG42673 | DRSC10354 | 65740 | 82690 | inactive
CG3829 | DRSC04423 | 51880 | 77037 | inactive
Hsf | DRSC07443 | 54587 | 59067 | inactive
CG13127 | DRSC02223 | 42457 | 59940 | inactive
Ddx1 | DRSC11862 | 22557 | 24370 | inactive
RpS30 | DRSC15119 | 36080 | 37090 | inactive
CG4282 | DRSC06865 | 87940 | 77737 | inactive
beat-IIb | DRSC13219 | 1.14e5 | 1.31e5 | inactive
beat-IIb | DRSC14816 | 78630 | 74000 | inactive
beat-IIb | DRSC15546 | 77090 | 1.00e5 | inactive
CG42699 | DRSC18341 | 33720 | 35500 | inactive
hale | DRSC10882 | 62593 | 52683 | inactive
MED4 | DRSC11014 | 40980 | 36303 | inactive
CG10352 | DRSC19353 | 3.29e5 | 3.22e5 | inactive
TrpRS-m | DRSC10848 | 27607 | 28680 | inactive
Octalpha2R | DRSC13319 | 2.46e5 | 2.42e5 | inactive
Octalpha2R | DRSC15314 | 15560 | 19830 | inactive
CG2209 | DRSC19843 | 3.60e5 | 3.65e5 | inactive
CG12093 | DRSC08252 | 76083 | 59520 | inactive
CG15458 | DRSC20529 | 2.96e5 | 2.97e5 | inactive
mip40 | DRSC06541 | 59803 | 83480 | inactive
sqd | DRSC15160 | 1.08e5 | 94730 | inactive
sqd | DRSC17066 | 1.37e5 | 1.83e5 | inactive
CG13288 | DRSC09962 | 53460 | 78063 | inactive
ast | DRSC00803 | 1.09e5 | 97960 | inactive
CG17267 | DRSC15207 | 64370 | 80450 | inactive
Reepl1 | DRSC19418 | 3.23e5 | 3.37e5 | inactive
AgmNAT | DRSC18072 | 47050 | 54510 | inactive
Lcp1 | DRSC07455 | 43070 | 70127 | inactive
CG2811 | DRSC04318 | 55793 | 58187 | inactive
RpL10Aa | DRSC15518 | 56860 | 52290 | inactive
CG31064 | DRSC14756 | 55480 | 66640 | inactive
CG31064 | DRSC15941 | 56590 | 31730 | inactive
CG31064 | DRSC15942 | 51370 | 34910 | inactive
CG31064 | DRSC15943 | 36520 | 30010 | inactive
Cpr72Ec | DRSC10449 | 16733 | 23413 | inactive
Liprin-alpha | DRSC02132 | 1.07e5 | 1.03e5 | inactive

6 entries from above, sorted by “raw ATP luminescence, replicate 1”, descending.
gene | dsRNA | raw ATP luminescence, replicate 1 | raw ATP luminescence, replicate 2 | Outcome
CG2209 | DRSC19843 | 3.60e5 | 3.65e5 | inactive
CG10352 | DRSC19353 | 3.29e5 | 3.22e5 | inactive
Octalpha2R | DRSC13319 | 2.46e5 | 2.42e5 | inactive
MED4 | DRSC11014 | 40980 | 36303 | inactive
TrpRS-m | DRSC10848 | 27607 | 28680 | inactive
Octalpha2R | DRSC15314 | 15560 | 19830 | inactive

Next records follow.
gene | dsRNA | raw ATP luminescence, replicate 1 | raw ATP luminescence, replicate 2 | Outcome
NimB5 | DRSC01885 | 54627 | 74620 | inactive
128up | DRSC05027 | 61037 | 44070 | inactive
CG33769 | DRSC11716 | 42567 | 31030 | inactive
CG14427 | DRSC17921 | 45850 | 46990 | inactive
CG11899 | DRSC16656 | 32990 | 32480 | inactive
ergic53 | DRSC11389 | 88590 | 84297 | inactive
Claspin | DRSC08308 | 2.55e5 | 2.54e5 | inactive
Sfp93F | DRSC13505 | 1.43e5 | 1.63e5 | inactive
CG12730 | DRSC17885 | 30420 | 34880 | inactive
nudE | DRSC09000 | 1.44e5 | 1.57e5 | inactive
nudE | DRSC10962 | 77930 | 65600 | inactive
Rnf146 | DRSC11045 | 61083 | 58150 | inactive
Hacl | DRSC06061 | 54947 | 55873 | inactive
SdhB | DRSC05018 | 63173 | 51660 | inactive
CG32568 | DRSC19913 | 2.90e5 | 3.37e5 | inactive
CG31517 | DRSC13010 | 2.14e5 | 2.11e5 | inactive
Gk2 | DRSC08610 | 63153 | 61150 | inactive
Unc-115b + p24-2 + Unc-115a | DRSC16502 | 63600 | 67803 | inactive
CG1827 | DRSC06719 | 46310 | 39183 | inactive
CG14410 | DRSC19596 | 3.93e5 | 3.67e5 | inactive
Daao2 | DRSC02135 | 1.06e5 | 76197 | inactive
Smyd4-3 | DRSC07041 | 61990 | 68213 | inactive
Wdr82 | DRSC02595 | 1.21e5 | 1.23e5 | inactive
fy | DRSC03533 | 41390 | 78017 | inactive
Uhg2 + snoRNA:Me18S-G1620 + snoRNA:U14:30Ea | DRSC01100 | 2.48e5 | 2.15e5 | inactive
CG13060 | DRSC09943 | 48927 | 42873 | inactive
bonsai | DRSC04453 | 46760 | 57443 | inactive
CG1835 | DRSC20560 | 2.94e5 | 3.07e5 | inactive
CG8545 | DRSC07210 | 82060 | 52513 | inactive
Lamtor1 | DRSC10183 | 72573 | 66283 | inactive
Grasp65 | DRSC10917 | 71477 | 71923 | inactive
